Values joined by “and” are separate entries in the source; they are usually repeats but may differ in a detail not shown here. Equal entries are not always repeated.
Legend:
[1] = Inclusion constant with HPCD by Higuchi and Connors phase solubility method; assay type: physicochemical; conditions: no Tween 20, 1:1 complex
[2] = Inclusion constant with HPCD by steady-state fluorescence (Benesi-Hildebrand); assay type: physicochemical

Row | Compound | Kc, inclusion constant with HPCD [1] | Kc, inclusion constant with HPCD ([2]; [Tween 20] = 3.9 × 10^−3 M, citric buffer 0.04 M pH 3.5, T = 25 °C) | Kc, inclusion constant with HPCD ([2]; no Tween 20, citric buffer 0.04 M pH 3.5, T = 25 °C, n = 1)
1 | CCCCOC(=O)c1cc(O)c(O)c(O)c1 [BG, butyl gallate] | 783 ± 35 M⁻¹ | – | –
2 | CCCOC(=O)c1cc(O)c(O)c(O)c1 [PG, Propyl gallate] | 383 M⁻¹ and 383 ± 12 M⁻¹ | – | –
3 | CCCCCCCCOC(=O)c1cc(O)c(O)c(O)c1 [OG, octyl gallate] | – | 20 ± 5 M⁻¹ | 1946 M⁻¹ and 1946 ± 85 M⁻¹

Reference: PMC12292233, “Effects of 2-Hydroxypropyl-β-Cyclodextrin on the Antioxidant Efficiency of Some Gallic Acid Derivatives in Soybean Oil-in-Water Emulsions” (Antioxidants, 2025)
